Screening data

The results are deposited in PubChem (AID504749; NCATS, 2011).

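Malaria parasite (P. falciparum) lines kept in red blood cells; parasite DNA is measured by SYBR Green fluorescence after lysis, 72 h after compound addition. Each compound was titrated across a series from about 0.000037 to 29 µM. The number is the fitted AC50, the concentration giving a half-maximal change in signal; a lower value means higher potency, whether the curve shows a decrease or an increase. Calls follow the curve class and fit quality: every row here is inconclusive, covering signal-raising curves and weak, poorly fitted, partial or highest-dose-only inhibition curves.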

Values are in µM. All entries here are filed as inconclusive. Only part of the assay is shown, chiefly results filed as inconclusive. A potency from a partial, single-point or poor curve is only a rough figure. Some entries filed as inconclusive have a full curve. The first word of each remark tells which way the curve ran; it can be opposite to the aim of the assay.

Compound	tested on / at	fitted potency (µM)	curve
O=C(O)[C@@H]1[C@@H]2C[C@H]3c4[nH]c5ccccc5c4CCN3C[C@@H]2CC[C@@H]1O	CP297	5.103	inhibitor, partial curve, poor fit
O=C(O)[C@@H]1[C@@H]2C[C@H]3c4[nH]c5ccccc5c4CCN3C[C@@H]2CC[C@@H]1O	PC15	3.162	inhibitor, single point
O=C(O)[C@@H]1[C@@H]2C[C@H]3c4[nH]c5ccccc5c4CCN3C[C@@H]2CC[C@@H]1O	P94_40	3.162	inhibitor, single point
O=C(O)[C@@H]1[C@@H]2C[C@H]3c4[nH]c5ccccc5c4CCN3C[C@@H]2CC[C@@H]1O	DIV30	2.031	inhibitor, partial curve, poor fit
O=C(O)[C@@H]1[C@@H]2C[C@H]3c4[nH]c5ccccc5c4CCN3C[C@@H]2CC[C@@H]1O	CP265	4.467	inhibitor, single point
O=C(O)[C@@H]1[C@@H]2C[C@H]3c4[nH]c5ccccc5c4CCN3C[C@@H]2CC[C@@H]1O	FAB9	3.548	inhibitor, partial curve
O=C(O)[C@@H]1[C@@H]2C[C@H]3c4[nH]c5ccccc5c4CCN3C[C@@H]2CC[C@@H]1O	TAB109	3.548	inhibitor, single point
O=C(O)[C@@H]1[C@@H]2C[C@H]3c4[nH]c5ccccc5c4CCN3C[C@@H]2CC[C@@H]1O	CP335	8.087	inhibitor, single point
O=C(O)[C@@H]1[C@@H]2C[C@H]3c4[nH]c5ccccc5c4CCN3C[C@@H]2CC[C@@H]1O	DFO2036	10	inhibitor, single point
O=C(O)[C@@H]1[C@@H]2C[C@H]3c4[nH]c5ccccc5c4CCN3C[C@@H]2CC[C@@H]1O	TAB165	10	inhibitor, single point
O=C(O)[C@@H]1[C@@H]2C[C@H]3c4[nH]c5ccccc5c4CCN3C[C@@H]2CC[C@@H]1O	P93_24	10	inhibitor, single point
O=C(O)[C@@H]1[C@@H]2C[C@H]3c4[nH]c5ccccc5c4CCN3C[C@@H]2CC[C@@H]1O	W2	5.103	inhibitor, partial curve, poor fit
COc1nccnc1NS(=O)(=O)c1ccc(N)cc1	3D7	3.162	inhibitor, single point
COc1nccnc1NS(=O)(=O)c1ccc(N)cc1	CP215	13.46	inhibitor, single point
CC[C@]1(O)C[C@H]2CN(CCc3c([nH]c4ccccc34)[C@@](C(=O)OC)(c3cc4c(cc3OC)N(C=O)[C@H]3[C@@](O)(C(=O)OC)[C@H](OC(C)=O)[C@]5(CC)C=CCN6CC[C@]43[C@@H]65)C2)C1	CP203	3.793	inhibitor, full curve, poor fit
CC[C@]1(O)C[C@H]2CN(CCc3c([nH]c4ccccc34)[C@@](C(=O)OC)(c3cc4c(cc3OC)N(C=O)[C@H]3[C@@](O)(C(=O)OC)[C@H](OC(C)=O)[C@]5(CC)C=CCN6CC[C@]43[C@@H]65)C2)C1	DIV17	2.133	inhibitor, full curve
CC[C@]1(O)C[C@H]2CN(CCc3c([nH]c4ccccc34)[C@@](C(=O)OC)(c3cc4c(cc3OC)N(C=O)[C@H]3[C@@](O)(C(=O)OC)[C@H](OC(C)=O)[C@]5(CC)C=CCN6CC[C@]43[C@@H]65)C2)C1	CP269	3.381	inhibitor, full curve, poor fit
CC[C@]1(O)C[C@H]2CN(CCc3c([nH]c4ccccc34)[C@@](C(=O)OC)(c3cc4c(cc3OC)N(C=O)[C@H]3[C@@](O)(C(=O)OC)[C@H](OC(C)=O)[C@]5(CC)C=CCN6CC[C@]43[C@@H]65)C2)C1	CP335	1.51	inhibitor, partial curve, poor fit
CC[C@]1(O)C[C@H]2CN(CCc3c([nH]c4ccccc34)[C@@](C(=O)OC)(c3cc4c(cc3OC)N(C=O)[C@H]3[C@@](O)(C(=O)OC)[C@H](OC(C)=O)[C@]5(CC)C=CCN6CC[C@]43[C@@H]65)C2)C1	PC26	3.013	inhibitor, full curve, poor fit
CC[C@]1(O)C[C@H]2CN(CCc3c([nH]c4ccccc34)[C@@](C(=O)OC)(c3cc4c(cc3OC)N(C=O)[C@H]3[C@@](O)(C(=O)OC)[C@H](OC(C)=O)[C@]5(CC)C=CCN6CC[C@]43[C@@H]65)C2)C1	FAB9	1.778	inhibitor, full curve
CC[C@]1(O)C[C@H]2CN(CCc3c([nH]c4ccccc34)[C@@](C(=O)OC)(c3cc4c(cc3OC)N(C=O)[C@H]3[C@@](O)(C(=O)OC)[C@H](OC(C)=O)[C@]5(CC)C=CCN6CC[C@]43[C@@H]65)C2)C1	CP315	2.686	activator
CC[C@]1(O)C[C@H]2CN(CCc3c([nH]c4ccccc34)[C@@](C(=O)OC)(c3cc4c(cc3OC)N(C=O)[C@H]3[C@@](O)(C(=O)OC)[C@H](OC(C)=O)[C@]5(CC)C=CCN6CC[C@]43[C@@H]65)C2)C1	CP329	3.013	activator
CC[C@]1(O)C[C@H]2CN(CCc3c([nH]c4ccccc34)[C@@](C(=O)OC)(c3cc4c(cc3OC)N(C=O)[C@H]3[C@@](O)(C(=O)OC)[C@H](OC(C)=O)[C@]5(CC)C=CCN6CC[C@]43[C@@H]65)C2)C1	CP305	2.686	inhibitor, full curve
CC[C@]1(O)C[C@H]2CN(CCc3c([nH]c4ccccc34)[C@@](C(=O)OC)(c3cc4c(cc3OC)N(C=O)[C@H]3[C@@](O)(C(=O)OC)[C@H](OC(C)=O)[C@]5(CC)C=CCN6CC[C@]43[C@@H]65)C2)C1	CP262	3.381	inhibitor, single point
CC[C@]1(O)C[C@H]2CN(CCc3c([nH]c4ccccc34)[C@@](C(=O)OC)(c3cc4c(cc3OC)N(C=O)[C@H]3[C@@](O)(C(=O)OC)[C@H](OC(C)=O)[C@]5(CC)C=CCN6CC[C@]43[C@@H]65)C2)C1	CP192	3.381	inhibitor, full curve, poor fit
CC[C@]1(O)C[C@H]2CN(CCc3c([nH]c4ccccc34)[C@@](C(=O)OC)(c3cc4c(cc3OC)N(C=O)[C@H]3[C@@](O)(C(=O)OC)[C@H](OC(C)=O)[C@]5(CC)C=CCN6CC[C@]43[C@@H]65)C2)C1	P93_24	1.585	inhibitor, full curve

Some entries from above, unchanged:

| Compound | tested on / at | fitted potency (µM) | curve |
|---|---|---|---|
| `CC[C@]1(O)C[C@H]2CN(CCc3c([nH]c4ccccc34)[C@@](C(=O)OC)(c3cc4c(cc3OC)N(C=O)[C@H]3[C@@](O)(C(=O)OC)[C@H](OC(C)=O)[C@]5(CC)C=CCN6CC[C@]43[C@@H]65)C2)C1` | CP315 | 2.686 | activator |
| `CC[C@]1(O)C[C@H]2CN(CCc3c([nH]c4ccccc34)[C@@](C(=O)OC)(c3cc4c(cc3OC)N(C=O)[C@H]3[C@@](O)(C(=O)OC)[C@H](OC(C)=O)[C@]5(CC)C=CCN6CC[C@]43[C@@H]65)C2)C1` | CP329 | 3.013 | activator |
| `O=C(O)[C@@H]1[C@@H]2C[C@H]3c4[nH]c5ccccc5c4CCN3C[C@@H]2CC[C@@H]1O` | P93_24 | 10 | inhibitor, single point |